Measured values reported in PubChem BioAssay AID2685 (National Center for Advancing Translational Sciences (NCATS), 2010).
The list shows a part of the results. Further columns of the screen follow, without active or inactive calls. Most of these compounds were active or inconclusive in the main read-out, so they are no random draw. Potencies come from curve fits of mixed quality, noted in brackets.

Test: qHTS Assay for Lipid Storage Modulators in Drosophila S3 Cells;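 for cell number change: cells counted by Cell Tracker Red CMTPX staining in the red channel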
Details: BODIPY lipid droplet fluorescence, 18-24 h; for cell number change: measured here: cell count max response, cells fed with added oleic acid
In short: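 Drosophila S3 cells loaded with oleic acid (400 uM, as added) and compounds at several concentrations; lipid droplets imaged by 488-nm laser-scanning cytometry, 500–530 nm intensity and object ratio to cell channel. Percent activity normalized to 20 uM Triacsin C.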

[1] = measured here: cell number channel AC50, cells fed with added oleic acid
[2] = measured here: lipid fluorescence (Fed channel) AC50, cells fed with added oleic acid

Structure (SMILES) | cell number change | AC50 [1] | AC50 [2]
Cn1ccnc1SCC(=O)Nc1nc2c(F)c(F)c(F)cc2s1 | 7.04% |  | 
Cc1noc(C)c1C(=O)NCCCN1CCCC1=O | -35.1% | 16.4 µM [falling, partial curve, poor fit] | 8.2 µM [falling, partial curve]
COC(=O)C(C#N)C(=C1C(=O)CC(C)(C)CC1=O)c1ccc(O)cc1 (configuration not stated) | -139% | 29.1 µM [falling, partial curve] | 0.651 µM [falling, single point]
Cc1ccc2nc(N(CCN3CCOCC3)C(=O)CCS(=O)(=O)c3ccccc3)sc2c1 | -62.1% | 16.4 µM [falling, single point] | 0.00461 µM [rising, full curve, poor fit]
CSCc1cccc(C(=O)OC(C)C(=O)Nc2c(C)n(C)n(-c3ccccc3)c2=O)c1 (configuration not stated) | 4% |  | 0.58 µM [rising, single point]
c1cncc(-c2nc(-c3ccco3)cs2)c1 | -11.7% |  | 0.731 µM [rising, single point]
COc1cc(C(=O)N2CCN(c3ncnc4sc(C)c(C)c34)CC2)cc(OC)c1OC | -34.3% | 10.3 µM [falling, partial curve, poor fit] | 8.2 µM [falling, partial curve]
CCN(CC)c1nc(C)c(C(=S)Nc2cc([N+](=O)[O-])ccc2Cl)s1 | -28.3% |  | 1.64 µM [falling, partial curve, poor fit]
CCOc1ccccc1CNC(=O)c1ccccc1NC(=O)C1=CSCCO1 | -10% |  | 11.6 µM [falling, single point]
O=C(CCn1ccc2cc(S(=O)(=O)N3CCCC3)ccc21)NCc1ccccc1F | -12.9% |  | 29.1 µM [rising, single point]
COC(=O)c1cccc(COC(=O)c2cccnc2SC)c1 | 55.2% | 29.1 µM [rising, single point] | 
S=c1[nH]nc(-c2cc(-c3ccccc3)n[nH]2)n1/N=C/C(Br)=C/c1ccccc1 | -68.5% | 18.4 µM [falling, single point] | 16.4 µM [falling, partial curve, poor fit]
C=CCn1cc(-c2ccc(Cl)cc2)cc(C#N)c1=O | 104% | 7.31 µM [rising, partial curve] | 9.2 µM [rising, partial curve]
O=C1C2(c3ccccc3)CN(CCO)CC1(c1ccccc1)CN(CCO)C2 | -96.6% | 23.1 µM [falling, partial curve] | 1.46 µM [falling, partial curve]
COC(=O)CN1C(=S)N(c2ccc(F)cc2)C(=O)C1CC(=O)Nc1ccc(F)cc1 (configuration not stated) | -6.7% |  | 0.103 µM [falling, full curve, poor fit]
Cc1ccc(C)c(NC(=S)N2CCN(S(=O)(=O)c3ccccc3)CC2)c1 | -5.94% |  | 6.51 µM [falling, partial curve, poor fit]
Cc1cccc2cc(CN(CC3CCCO3)C(=O)NC3CCCCC3)c(=O)[nH]c12 (configuration not stated) | -10.8% |  | 6.51 µM [rising, single point]
Cc1ccc(-n2nnnc2SCC(=O)N2CCNC2=O)cc1C | -0.519% |  | 0.731 µM [rising, single point]
CCOc1ccc(-c2cccc(NS(=O)(=O)c3cc([N+](=O)[O-])ccc3C)c2)nn1 | -7.91% |  | 0.731 µM [falling, single point]
COc1ccc(NC(=O)NNC(=O)C(C)Oc2ccc3ccccc3c2)cc1OC (configuration not stated) | 11.9% |  | 29.1 µM [rising, single point]

Structure (SMILES) | cell number change | AC50 [1] | AC50 [2]
CCCSCCCNC(=O)Cn1c(=O)c2cccn2c2ccccc21 | -15% |  | 8.2 µM [falling, partial curve]
CC(=O)N1CCOc2ccc(S(=O)(=O)N3CCN(c4cccc(C(F)(F)F)c4)CC3)cc21 | -3.58% |  | 
Cn1cc(-c2nnnn2-c2ccc(Cl)cc2)c(C(F)(F)F)n1 | 84.1% | 18.4 µM [rising, single point] | 0.58 µM [falling, single point]
N#CC(Cc1ccccc1)(Cc1ccccc1)C(=O)NN | -13.5% |  | 
S=C(NCCCn1ccnc1)Nc1ccc(Cl)cc1Cl |  |  | 1 µM [rising, partial curve, poor fit]
CCc1cccc(CC)c1NC(=S)NCc1ccc2c(c1)OCO2 | 16.1% |  | 29.1 µM [rising, single point]
C/C(N)=C(/C#N)C(=O)CSc1nnc(Nc2ccccc2C)s1 | -10.8% |  | 
Cc1cc(Cl)cc(Br)c1OCCCN1C(=O)NC(C)(C)C1=O | 0.433% |  | 
CCOc1cccc2sc(N(CCN(C)C)C(=O)c3cc4ccccc4cc3OC)nc12 | -11.6% |  | 29.1 µM [falling, single point]
CCCN1C(=O)c2cc(C(=O)Nc3ccccc3C)ccc2C1Nc1ccccc1C (configuration not stated) | -1.68% |  | 
Cc1nnc(-c2cnn(C)c2N)n1Cc1ccc(Cl)cc1 |  | 5.17 µM [rising, single point] | 6.51 µM [rising, partial curve]
CC(=O)N1CCN(S(=O)(=O)c2cccc(C(=O)OCC(=O)N3CC(=O)Nc4ccccc43)c2)CC1 |  | 0.0651 µM [falling, full curve] | 0.0058 µM [falling, full curve, poor fit]
O=C(/C=C/c1ccccc1)N1CCN(c2c(Cl)cccc2[N+](=O)[O-])CC1 | 37% | 0.92 µM [rising, full curve] | 
COc1cccc(/C=N/NC(N)=S)c1OCc1cccc(Cl)c1 |  |  | 9.2 µM [falling, partial curve]
CO/N=C(\Cn1ncc(NC2CCCCC2)c(Br)c1=O)c1ccc(Cl)cc1 | -5.46% |  | 23.1 µM [rising, single point]
Cn1nc(-c2ccc(C(=O)O)cc2)c2ccccc2c1=O |  |  | 6.51 µM [rising, single point]
CCCC(C(=O)Nc1ccc(S(=O)(=O)Nc2ncccn2)cc1)c1ccccc1 (configuration not stated) | -16.2% |  | 0.58 µM [falling, single point]
CC(=O)N1N=C(c2ccc(C)cc2)OC1c1ccc(C)cc1 (configuration not stated) | -32.2% | 23.1 µM [falling, partial curve, poor fit] | 14.6 µM [falling, partial curve, poor fit]
N#Cc1ccccc1COC(=O)c1cccnc1N | -49.6% | 11.6 µM [falling, single point] | 20.6 µM [falling, single point]
Cc1ccc(-c2noc(CCCC(=O)Nc3cccnc3)n2)cc1 | -6.76% |  | 

Structure (SMILES) | cell number change | AC50 [1] | AC50 [2]
CCCn1c(SCC(=O)Nc2cc(Cl)ccc2OC)nc(O)cc1=O | 11.8% |  | 6.51 µM [rising, single point]
COc1ccc(CCNC(=O)c2cc3ccccn3n2)c(OC)c1OC | 5.55% |  | 
O=C(c1nc2n(n1)C(c1ccc(Cl)cc1)C=C(c1ccccc1)N2)N1CCOCC1 (configuration not stated) |  |  | 0.731 µM [falling, single point]
O=C(Nc1csc([N+](=O)[O-])c1)Nc1ccccc1Cl | -15.3% |  | 
Cc1ccc(OCC(=O)Nc2ccc3c(c2)nc(CCN2CCCCC2)n3C)cc1 | -13.8% |  | 
Cc1cccc(OCCC(=O)Nc2ccc(F)c(F)c2)c1 | -33.9% | 2.31 µM [rising, partial curve, poor fit] | 
Cc1csc(NC(=O)CSc2nnc(-c3cc(C)on3)o2)n1 | 20.3% |  | 0.58 µM [rising, single point]
CCc1ccccc1NC(=O)C1CCN(S(=O)(=O)c2ccc3c(c2)N(C(C)=O)CCO3)CC1 | 0.763% |  | 18.4 µM [falling, partial curve]
COc1ccc(NC(=O)C(=O)NCCN2CCN(C(=O)C(c3ccccc3)c3ccccc3)CC2)cc1 |  |  | 0.58 µM [rising, full curve]
COc1ccc(NC(=O)O/N=C/c2ccc(N(C)C)cc2)cc1 | 20.6% |  | 3.26 µM [rising, full curve, poor fit]
CN(CC(=O)Nc1cccc(F)c1)C(=O)c1cccnc1Sc1ccccc1 | 41.4% |  | 
O=C(Nc1nnc(-c2ccccc2F)s1)c1ccccc1F | 46.8% | 2.91 µM [rising, full curve] | 
O=C(Nc1ccc(N2CCCCC2)cc1)C(Cl)c1ccccc1 (configuration not stated) | -26.1% | 0.058 µM [falling, full curve] | 
Cc1ccc(S(=O)(=O)N2CCOCC2)cc1C(=O)NCc1ccccc1CN1CCCC1 | 4.39% |  | 16.4 µM [falling, partial curve]
COc1ccc(C(=O)NNC(=O)OC(C)(C)C)cc1 | -11% |  | 6.51 µM [falling, single point]
CCOC(=O)N1CCc2c(sc3c2c(=O)n(Cc2ccccc2)c(=O)n3Cc2cccc(C)c2)C1 | 8.22% |  | 
COc1cn(-c2ccccc2)nc1C(=O)Nc1ccc(C)cc1Cl | 22.6% |  | 
CC1c2[nH]c3ccccc3c2C[C@H]2C(=O)N(CCCN(C)C)CC(=O)N12 (some centres not stated) | -4.25% |  | 20.6 µM [rising, partial curve]
CCCNC(=O)c1ccc(N2CCC3(CC2)CC(c2ccc(Cl)cc2)=NO3)c([N+](=O)[O-])c1 |  |  | 29.1 µM [falling, single point]
Cc1cccc(NC(=O)CN2C(=O)N/C(=C/c3ccc(-c4cccc(C(=O)O)c4C)o3)C2=O)c1 | -50% | 29.1 µM [falling, single point] | 29.1 µM [falling, single point]

Full records, looked up by structure:
Cc1ccc(S(=O)(=O)N2CCOCC2)cc1C(=O)NCc1ccccc1CN1CCCC1 is listed with cell number change: 4.39%; AC50 [2]: 16.4 µM [falling, partial curve]
CC(=O)N1N=C(c2ccc(C)cc2)OC1c1ccc(C)cc1 (configuration not stated) is listed with cell number change: -32.2%; AC50 [1]: 23.1 µM [falling, partial curve, poor fit]; AC50 [2]: 14.6 µM [falling, partial curve, poor fit]
